Data reported in publication PMC8622533.
These are yes or no findings as the source states them, for the method shown. A result given as binding can be weak or reduced; the word gives no strength. Tags and fused reporters may be left off the sequences shown. For part of these data: Binding seen in cells or lysates may run through a third protein. Values belong to the substance of their own block, whether it stands above or below them.

Assays:
[1] = target: T1, GST-OsABF1 (rice (Oryza sativa)) (UniProt Q0JHF1); test: pull-down; GST pull-down in vitro; GST-OsABF1 or GST as bait, purified His-OsEMF2b as prey; detected with anti-His and anti-GST antibodies; both purified
T1 sequence: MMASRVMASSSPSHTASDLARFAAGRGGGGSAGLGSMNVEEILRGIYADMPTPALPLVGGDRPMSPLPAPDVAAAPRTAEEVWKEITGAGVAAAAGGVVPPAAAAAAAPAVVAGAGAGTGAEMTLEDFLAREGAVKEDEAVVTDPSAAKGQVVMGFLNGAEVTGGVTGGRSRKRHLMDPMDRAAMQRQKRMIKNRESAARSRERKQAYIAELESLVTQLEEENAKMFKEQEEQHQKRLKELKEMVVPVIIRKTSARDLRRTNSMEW

[2] = target: T2, OsABF1-BD (rice (Oryza sativa)) (UniProt Q0JHF1); test: two-hybrid; Clontech system, yeast strain Y2H Gold; OsABF1 in bait vector pGBKT7, OsEMF2b in prey vector pGADT7; growth on SD-Trp/-Leu/-Ade/-His with 3 mM 3-AT
T2 sequence: T1 sequence

[3] = target: T3, OsABF1-cYFP (rice (Oryza sativa)) (UniProt Q0JHF1); test: split reporter; BiFC; nYFP-OsEMF2b and OsABF1-cYFP from vector pDOE-BiFC, transiently expressed in tobacco leaf epidermal cells; YFP fluorescence
T3 sequence: T1 sequence

binding [1]: binds
Substance: His-OsEMF2b (rice (Oryza sativa))

binding [2]: binds
Substance: OsEMF2b-AD (rice (Oryza sativa))

binding [3]: binds
Substance: nYFP-OsEMF2b (rice (Oryza sativa))
